# Results published in the supplement of paper PMC12889115.
# Some of the results follow. Values are raw readings; no control value is given beside them.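 In the initial screen, polymyxin B was used at a concentration that permeabilizes Salmonella's outer membrane but not its inner membrane. Maximum growth was set by DMSO wells with or without polymyxin B. Since plates varied, data were ranked per plate, and compounds giving the lowest OD600 advanced as hits.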
# Test system: Salmonella enterica serovar Typhimurium SL1344
# Assay: bacterial growth OD600 after 18 h with compound and polymyxin B; higher = more bacterial growth (less inhibition)
# Conditions: 50 µM, Mueller-Hinton broth
compound,measurement,setting,value
CN1CCCC(CNc2ccc(-c3nc(-c4ccccc4F)no3)cn2)C1 (stereo unspecified),bacterial growth OD600,polymyxin B 1 µg/mL,0.943
CC(CCCC(C)(C)O)NCc1c(C(=O)N2CCCC2)nc2ccccn12 (stereo unspecified),bacterial growth OD600,polymyxin B 1 µg/mL,0.988
O=C(c1ccc(-c2ccco2)cc1)N1CCC2(CCCN(CC3CC3)C2)C1 (stereo unspecified),bacterial growth OD600,polymyxin B 1 µg/mL,0.897
CCOC(=O)C1(Cc2ccccc2C(F)(F)F)CCN(Cc2cccc(O)c2)CC1,bacterial growth OD600,polymyxin B 1 µg/mL,0.652
Cc1cc(OCc2cc(C(=O)N3CCN(CC4CC4)CC3)no2)cc(C)c1Cl,bacterial growth OD600,polymyxin B 1 µg/mL,0.601
CCOc1ccc(CN2CCCC(CO)(Cc3ccccc3F)C2)cc1 (stereo unspecified),bacterial growth OD600,polymyxin B 0.75 µg/mL,0.924
COc1cc(OC)c(OC)cc1CN1CC[C@@H](N2CCN(C)CC2)[C@H](O)C1,bacterial growth OD600,polymyxin B 0.75 µg/mL,0.784
CC(C)Cc1nc2cc(NS(=O)(=O)N(C)C)cc(C(=O)NC3CCCCCC3)c2n1C,bacterial growth OD600,polymyxin B 0.75 µg/mL,0.775
C[C@@H]1CN(C(=O)c2nc3sccn3c2CNC2(c3ccccc3)CC2)C[C@H](C)O1,bacterial growth OD600,polymyxin B 0.75 µg/mL,0.773
O=C(Cc1ccccn1)N1CCC(C2CCN(c3ncccn3)CC2)C1 (stereo unspecified),bacterial growth OD600,polymyxin B 0.75 µg/mL,0.183
COc1ccc(C(=O)N2CCCC(N3CCN(c4ccc(F)cc4)CC3)C2)c(OC)c1 (stereo unspecified),bacterial growth OD600,polymyxin B 1 µg/mL,0.93
Cc1ccsc1C(=O)N1CCCC(C(=O)c2cccc(OC(C)C)c2)C1 (stereo unspecified),bacterial growth OD600,polymyxin B 1 µg/mL,0.66
O=C(C1=CCCC1)N1CCCC(c2[nH]ncc2-c2ccc(F)c(F)c2)C1 (stereo unspecified),bacterial growth OD600,polymyxin B 0.75 µg/mL,0.752
COc1ccc(CNC(=O)CCC2CCCN(Cc3ccccc3)C2)c(OC)c1 (stereo unspecified),bacterial growth OD600,polymyxin B 1 µg/mL,1.07
CC(C)n1cc(CNC2CC(C)(C)Cc3nc(N4CCOCC4)ncc32)cn1 (stereo unspecified),bacterial growth OD600,polymyxin B 0.75 µg/mL,0.96
Cc1ccc(F)cc1CNC(=O)C1CCN(c2nc(C)c3ccc(S(C)(=O)=O)cc3n2)CC1,bacterial growth OD600,polymyxin B 0.75 µg/mL,0.893
CCn1cnnc1CN(C)c1ccc(-c2nc(COc3ccccc3)no2)cn1,bacterial growth OD600,polymyxin B 1 µg/mL,0.774
C1CCCN(c2nc3nonc3nc2NCCCN2CCOCC2)CC1,bacterial growth OD600,polymyxin B 1 µg/mL,1.05
COCCN1C(=O)CC(CC(=O)N2CCCC(C(=O)c3ccccc3)C2)(c2ccccc2F)C1=O (stereo unspecified),bacterial growth OD600,polymyxin B 0.75 µg/mL,0.782
COc1cccc(CC2=NOC(C(=O)NCc3ccc(C(F)(F)F)cc3)C2)c1 (stereo unspecified),bacterial growth OD600,polymyxin B 0.75 µg/mL,0.006
Cc1ccc2c(c1)CN(CC(=O)N(C)Cc1nccn1C)CC(c1ccsc1)O2 (stereo unspecified),bacterial growth OD600,polymyxin B 0.75 µg/mL,0.006
Cc1ccn(CCC(=O)NCc2cccnc2Oc2ccccc2F)n1,bacterial growth OD600,polymyxin B 1 µg/mL,1.11
CCOC(=O)N1CCC(NC(=O)C2CC23CCN(C(=O)c2ccccc2C(F)(F)F)CC3)CC1 (stereo unspecified),bacterial growth OD600,polymyxin B 0.75 µg/mL,0.863
Cc1ccccc1C(CC(=O)N(C)Cc1c(C)nn(C)c1C)c1ccccc1 (stereo unspecified),bacterial growth OD600,polymyxin B 0.75 µg/mL,0.523
COc1ccc(N2C(=O)CN(C(=O)c3cccnc3SC)CC23CCCC3)cc1,bacterial growth OD600,polymyxin B 0.75 µg/mL,0.768
CCn1ccnc1CN1CCCC(CCC(=O)Nc2ccccc2F)C1 (stereo unspecified),bacterial growth OD600,polymyxin B 1 µg/mL,0.849
Cc1ccc(-n2ncc3c2CCCC3NC(=O)C2CCN(C(=O)N(C)C)CC2)cc1C (stereo unspecified),bacterial growth OD600,polymyxin B 1 µg/mL,1.16
O=C(Nc1ccc(-c2nc3ccccc3o2)cc1)C1CCCN1C(=O)C1CC1 (stereo unspecified),bacterial growth OD600,polymyxin B 0.75 µg/mL,0.973
COc1ccc(F)c(CC2(CCC(=O)N3CCCC(OCc4ccccc4)C3)CCC(=O)N2)c1 (stereo unspecified),bacterial growth OD600,polymyxin B 0.75 µg/mL,0.844
COc1ccc(CN2CCCC(N3CCN(c4ccccc4C)CC3)C2)cc1 (stereo unspecified),bacterial growth OD600,polymyxin B 1 µg/mL,0.889
CCNC(=O)c1cn(C(C)CC)cc(C(=O)NCc2cc(-c3ccccc3)on2)c1=O (stereo unspecified),bacterial growth OD600,polymyxin B 0.75 µg/mL,0.854

# Random excerpt: 2 compounds from above, in no set order.
compound,measurement,setting,value
COc1ccc(C(=O)N2CCCC(N3CCN(c4ccc(F)cc4)CC3)C2)c(OC)c1 (stereo unspecified),bacterial growth OD600,polymyxin B 1 µg/mL,0.93
Cc1ccn(CCC(=O)NCc2cccnc2Oc2ccccc2F)n1,bacterial growth OD600,polymyxin B 1 µg/mL,1.11
